# Laboratory results reported in the supplement of paper PMC8728848.
# Some of the results follow.
# How the values were obtained:
# Experiment in all cases: glycan array binding signal (z-score within array); higher = stronger binding
# Conditions in all cases: glycan notation: IUPAC condensed, linker removed
# [1] = target: Neu5Ac(a2-6)GlcNAc(b1-4)GlcNAc(b1-4)GlcNAc
# Method in brief: (§1)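 From the Consortium for Functional Glycomics database, 3228 arrays were curated, keeping only those whose protein sequence was available. Binding is given as a within-array Z-score averaged across arrays sharing a protein sequence and across linkers. Negative Z-scores can be read as non-binding.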
# Neu5Ac(a2-8)Neu5Ac = target: Neu5Ac(a2-8)Neu5Ac
# Method in brief: as §1
# [2] = target: Neu5Ac(a2-8)Neu5Ac(a2-3)Gal(b1-3)GalNAc(b1-4)[Neu5Ac(a2-3)]Gal(b1-4)Glc
# Method in brief: as §1
# [3] = target: Neu5Ac(a2-8)Neu5Ac(a2-3)Gal(b1-3)GalNAc(b1-4)[Neu5Ac(a2-8)Neu5Ac(a2-3)]Gal(b1-4)Glc
# Method in brief: as §1
# [4] = target: Neu5Ac(a2-8)Neu5Ac(a2-3)Gal(b1-4)Glc
# Method in brief: as §1
# [5] = target: Neu5Ac(a2-8)Neu5Ac(a2-3)Gal(b1-4)GlcNAc
# Method in brief: as §1
# [6] = target: Neu5Ac(a2-8)Neu5Ac(a2-3)[Gal(b1-3)GalNAc(b1-4)]Gal(b1-4)Glc
# Method in brief: as §1
# [7] = target: Neu5Ac(a2-8)Neu5Ac(a2-3)[GalNAc(b1-4)]Gal(b1-4)Glc
# Method in brief: as §1
# [8] = target: Neu5Ac(a2-8)Neu5Ac(a2-8)Neu5Ac
# Method in brief: as §1
# [9] = target: Neu5Ac(a2-8)Neu5Ac(a2-8)Neu5Ac(a2-3)Gal(b1-4)Glc
# Method in brief: as §1
# [10] = target: Neu5Ac(a2-8)Neu5Ac(a2-8)Neu5Ac(a2-3)[Gal(b1-3)GalNAc(b1-4)]Gal(b1-4)Glc
# Method in brief: as §1
# [11] = target: Neu5Ac(a2-8)Neu5Ac(a2-8)Neu5Ac(a2-3)[GalNAc(b1-4)]Gal(b1-4)Glc
# Method in brief: as §1
# [12] = target: Neu5Ac(a2-8)Neu5Ac(a2-8)Neu5Ac(a2-8)Neu5Ac(a2-3)[GalNAc(b1-4)]Gal(b1-4)Glc
# Method in brief: as §1
# [13] = target: Neu5Ac(a2-8)Neu5Gc(a2-3)Gal(b1-4)GlcNAc
# Method in brief: as §1
# [14] = target: Neu5Ac(b2-6)Gal(b1-4)GlcNAc
# Method in brief: as §1
# Neu5Ac(b2-6)GalNAc = target: Neu5Ac(b2-6)GalNAc
# Method in brief: as §1
# [15] = target: Neu5Ac9Ac(a2-3)Gal(b1-3)GlcNAc
# Method in brief: as §1
# [16] = target: Neu5Ac9Ac(a2-3)Gal(b1-4)GlcNAc
# Method in brief: as §1
# [17] = target: Neu5Ac9Ac(a2-6)Gal(b1-4)GlcNAc
# Method in brief: as §1
# [18] = target: Neu5Gc(a2-3)Gal(b1-3)GlcNAc
# Method in brief: as §1
# [19] = target: Neu5Gc(a2-3)Gal(b1-3)[Fuc(a1-4)]GlcNAc
# Method in brief: as §1
# Neu5Gc(a2-3)Gal(b1-4)Glc = target: Neu5Gc(a2-3)Gal(b1-4)Glc
# Method in brief: as §1
# [20] = target: Neu5Gc(a2-3)Gal(b1-4)GlcNAc
# Method in brief: as §1
# [21] = target: Neu5Gc(a2-3)Gal(b1-4)GlcNAc(b1-3)Gal(b1-4)GlcNAc(b1-2)Man(a1-3)[Neu5Gc(a2-3)Gal(b1-4)GlcNAc(b1-3)Gal(b1-4)GlcNAc(b1-2)Man(a1-6)]Man(b1-4)GlcNAc(b1-4)GlcNAc
# Method in brief: as §1
# [22] = target: Neu5Gc(a2-3)Gal(b1-4)[Fuc(a1-3)]GlcNAc
# Method in brief: as §1
# [23] = target: Neu5Gc(a2-6)Gal(b1-4)GlcNAc
# Method in brief: as §1
# Neu5Gc(a2-6)GalNAc = target: Neu5Gc(a2-6)GalNAc
# Method in brief: as §1
# [24] = target: Neu5Gc(a2-8)Neu5Ac(a2-3)Gal(b1-4)GlcNAc
# Method in brief: as §1
# [25] = target: Neu5Gc(a2-8)Neu5Gc(a2-3)Gal(b1-4)GlcNAc
# Method in brief: as §1
# [26] = target: Neu5Gc(a2-8)Neu5Gc(a2-3)Gal(b1-4)GlcNAc(b1-3)Gal(b1-4)GlcNAc
# Method in brief: as §1
# [27] = target: Neu5Gc(a2-8)Neu5Gc(a2-6)Gal(b1-4)GlcNAc
# Method in brief: as §1
# [28] = target: Neu5Gc(b2-6)Gal(b1-4)GlcNAc
# Method in brief: as §1
binder,measurement,setting,value
"AFL6 (Aspergillus fumigatus), Q4WKJ1 (protein) MSFHLTAEDIRIEDGHRLVARLRNADGDLQDASIDLNTCLGNDNGHFQWDGVDFSHSAQDVHFAIEGGGQVPVLRAQLANQDGEFQDADVNLSERIENINGEFVFH",glycan array binding signal (z-score),[1],-0.104
same,glycan array binding signal (z-score),Neu5Ac(a2-8)Neu5Ac,-0.314
same,glycan array binding signal (z-score),[2],-0.5
same,glycan array binding signal (z-score),[3],0.17
same,glycan array binding signal (z-score),[4],-0.53
same,glycan array binding signal (z-score),[5],-0.406
same,glycan array binding signal (z-score),[6],-0.306
same,glycan array binding signal (z-score),[7],-0.387
same,glycan array binding signal (z-score),[8],-0.492
same,glycan array binding signal (z-score),[9],-0.546
same,glycan array binding signal (z-score),[10],0.228
same,glycan array binding signal (z-score),[11],-0.309
same,glycan array binding signal (z-score),[12],0.549
same,glycan array binding signal (z-score),[13],0.164
same,glycan array binding signal (z-score),[14],-0.01
same,glycan array binding signal (z-score),Neu5Ac(b2-6)GalNAc,-1.29
same,glycan array binding signal (z-score),[15],-0.347
same,glycan array binding signal (z-score),[16],0.416
same,glycan array binding signal (z-score),[17],0.652
same,glycan array binding signal (z-score),[18],0.067
same,glycan array binding signal (z-score),[19],0.513
same,glycan array binding signal (z-score),Neu5Gc(a2-3)Gal(b1-4)Glc,-0.676
same,glycan array binding signal (z-score),[20],-0.448
same,glycan array binding signal (z-score),[21],0.775
same,glycan array binding signal (z-score),[22],0.063
same,glycan array binding signal (z-score),[23],-0.393
same,glycan array binding signal (z-score),Neu5Gc(a2-6)GalNAc,-0.038
same,glycan array binding signal (z-score),[24],-0.692
same,glycan array binding signal (z-score),[25],-0.775
same,glycan array binding signal (z-score),[26],-0.331
same,glycan array binding signal (z-score),[27],0.073
same,glycan array binding signal (z-score),[28],0.534

# In another format: entries from further up.
binder	measurement	setting	value
AFL6 (Aspergillus fumigatus), Q4WKJ1 (protein) MSFHLTAEDIRIEDGHRLVARLRNADGDLQDASIDLNTCLGNDNGHFQWDGVDFSHSAQDVHFAIEGGGQVPVLRAQLANQDGEFQDADVNLSERIENINGEFVFH	glycan array binding signal (z-score)	[8]	-0.492
same	glycan array binding signal (z-score)	[9]	-0.546
